From paper PMC5593527
Results are given in words; binding and its absence hold for the method and conditions named. Binding seen in cells or lysates may run through a third protein. Some binding calls cover weakened binding; strength is not graded here.

The chains behind the UniProt entries cited, without tags or fusion partners. Where a name states a change or a piece, a line headed by the entry shows the natural chain unless it says otherwise.
UniProt P35222: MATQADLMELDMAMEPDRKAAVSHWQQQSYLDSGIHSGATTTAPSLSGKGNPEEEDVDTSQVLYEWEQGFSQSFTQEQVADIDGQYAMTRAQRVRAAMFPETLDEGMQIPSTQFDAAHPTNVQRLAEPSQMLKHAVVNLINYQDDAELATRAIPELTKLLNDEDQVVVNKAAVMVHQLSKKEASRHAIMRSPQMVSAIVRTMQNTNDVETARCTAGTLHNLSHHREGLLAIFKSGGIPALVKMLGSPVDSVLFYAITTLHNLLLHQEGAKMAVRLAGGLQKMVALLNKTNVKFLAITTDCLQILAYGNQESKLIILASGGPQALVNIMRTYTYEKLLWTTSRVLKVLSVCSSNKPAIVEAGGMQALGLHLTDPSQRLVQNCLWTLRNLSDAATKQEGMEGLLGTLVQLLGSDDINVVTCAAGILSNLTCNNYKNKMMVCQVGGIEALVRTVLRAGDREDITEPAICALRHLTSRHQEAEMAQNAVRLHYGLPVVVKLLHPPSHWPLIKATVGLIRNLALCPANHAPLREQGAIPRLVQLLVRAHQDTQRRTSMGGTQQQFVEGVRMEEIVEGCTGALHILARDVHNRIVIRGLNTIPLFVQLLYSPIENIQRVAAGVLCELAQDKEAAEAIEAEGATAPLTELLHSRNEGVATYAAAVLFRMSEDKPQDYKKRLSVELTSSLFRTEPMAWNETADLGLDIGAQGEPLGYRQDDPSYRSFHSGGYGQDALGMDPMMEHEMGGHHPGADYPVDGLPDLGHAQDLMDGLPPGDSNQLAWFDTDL
UniProt Q9NRG4: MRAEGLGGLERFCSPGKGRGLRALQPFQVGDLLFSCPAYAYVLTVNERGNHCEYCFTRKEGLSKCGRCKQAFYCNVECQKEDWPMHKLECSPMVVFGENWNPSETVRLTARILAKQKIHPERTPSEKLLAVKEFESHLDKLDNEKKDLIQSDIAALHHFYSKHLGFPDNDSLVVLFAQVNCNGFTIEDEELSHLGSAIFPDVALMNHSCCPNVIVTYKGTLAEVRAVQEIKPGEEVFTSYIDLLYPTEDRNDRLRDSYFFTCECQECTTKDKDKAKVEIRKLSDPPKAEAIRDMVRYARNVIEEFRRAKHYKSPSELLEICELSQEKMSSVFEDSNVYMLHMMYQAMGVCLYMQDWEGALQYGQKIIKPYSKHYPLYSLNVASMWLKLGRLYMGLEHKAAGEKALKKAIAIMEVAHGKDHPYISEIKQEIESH

Experiments:
[1] = molecular target: FLAG-K133A-substituted β-catenin (human) (UniProt P35222); assay: co-IP; 293T cells co-transfected with FLAG-WT- or FLAG-K133A-β-catenin and HA-SMYD2, 48 h; 300 μg cell extract with anti-FLAG M2 affinity gel; beads washed 3 times in TBS pH 7.6; blots with anti-FOXM1, anti-BCL9, anti-α-catenin, anti-HA
[2] = molecular target: SMYD2 (endogenous) (human (endogenous in HCT116 and SNU475)) (UniProt Q9NRG4); assay: co-IP; cell extracts of HCT116 and SNU475; immunoprecipitation with anti-SMYD2 antibody or IgG, blot with anti-β-catenin; reciprocal immunoprecipitation with anti-β-catenin or control IgG, blot with anti-SMYD2

binding [1]	binding [2]	Substance
binds	–	HA-SMYD2 (from UniProt Q9NRG4 1-433) (enzyme)
–	binds	β-catenin (endogenous, SNU475) (from UniProt P35222 1-781)
